Results taken from PMC10403538.
No constants are given. Whether binding was seen depends on the method and setting. Binding seen in cells or lysates may run through a third protein. Here binding means that the protein was enriched with, or labelled near, the bait; the list need not be complete.

Target: GFP-MHZ9 (rice)
Experiment: affinity purification with mass spectrometry; GFP-Trap_A immunoprecipitation from 2-day-old etiolated 35S::GFP-MHZ9 transgenic rice seedlings treated with 10 μL/L ethylene for 8 h (n = 1); wild-type seedlings as negative control; LC-MS/MS

binding: binds
B1: OsEIN2 (protein, UniProt Q0D8I9 1-1281)
chain: MDGQQLRSSESPASGGGGVTGGGAPHLFHALGPALLISIGYIDLGKWVAAVEAGSRFGLDLVLLALLFNFMAILCQYLAACIGTVTGRSLAEICHQEYSRPTCIFLGVQAGLSLLTSELTMIFGIALGFNLLFEYDDLITGICFATVVPNLLPYAISHLGKKMVGTLNACIAGFALLCYVLGLLVSQPQIPLTTNVIFPKLSGESAYSLMALLGANVMAHNFYIHSSVVQGQKRSAFAVGALFHDHLFSVLFIFTGIFLVNHVLMNSAAADSTNTLLLTFQDVVELMNQIFVNPMAPTIFLVVLLFSSHIISLTSAIGSQVISQHLFGINLPLSGHHLILKAFAIVPALYCAKVAGAEGIYQLLIICQIIQAMLLPSSVVPLFRVASSRLIMGAHRVSLHLEILTFLAFLLMLFSNIIFMAEMLFGDSGWLNTLKGNTGSPVVFPSTVLITVACVSVAFSLYMAVTPLKSGSHEAELQQEWSVPSQKELLNTTQDREETCAGNVTYEEDQRSDVVPSPRIQPVDCLKSALDYIDSSDTAIESDHDSQHSTAHTSTAPESCHSPSFIPEESKSVVAVDWPEPLEPISNAIVAEESTVESVDSKSTGERDIEVEPALLMDNDKEAPNILESDNKPLGGNNPSCASDDGPPSLTFSRGKGSDAGNGSGSLSRLSGLGRAARRQLAAILDEFWGHLFDYHGKLTQEASSKRFDILLGLDVRTPSSTVRADSQANEIPKSPMVRDNLQGSAFLGSSRDLMSTKNEMSNLDLTYGLQMGNNIGSSAWSQGMQLPSTQLQSSSNSLLDQGARLNSNFSTPSYADNNQFYQPATIHGYQLASYLKQMNANRNPYSSMPLDPQRLPKSSASAVPTYVDSVMHARNQNLLASLGATPSQIAATSRIGTMMAERSYYVPSTLDGNENAGSSAYSKKYHSSPDISALIAASRSALLNESKLGGGTIGSQSYLSRLASERSQYTNSVARPAAPLAFDELSPPKLPGDIFSMQQSPNPSARSLWAKQPFEQLFGVSSAELTKSEFNPAGRSGGMTKDDFSYKESEAKLLQSLRFCISKLLKLEGSGWLFKQNGGSDEDLIDQVAAVEKLLQQGTSDNQLLLGDTQQPPCDKADIQYMRVLPNCGDDCIWRASLVVSFGVWCIRRVLDLSLVESRPELWGKYTYVLNRLQGILDPAFSKPRSALSACACLHRDIRVLNSLRHSSLVATNSIPRQIRGSFTTASVVLEMIKDVETAVSGRKGRSGTAAGDVAFPKGKENLASVLKRYKRRLSSKGQQ
